Results are given in words; binding and its absence hold for the method and conditions named. Some results given as binding are weak or reduced against the parent protein; the word gives no strength.
Target: T1, S. japonicus Tup11 WD40 domain (301–630) Arg384Ala (S. japonicus) (UniProt B6JV84)
T1 sequence: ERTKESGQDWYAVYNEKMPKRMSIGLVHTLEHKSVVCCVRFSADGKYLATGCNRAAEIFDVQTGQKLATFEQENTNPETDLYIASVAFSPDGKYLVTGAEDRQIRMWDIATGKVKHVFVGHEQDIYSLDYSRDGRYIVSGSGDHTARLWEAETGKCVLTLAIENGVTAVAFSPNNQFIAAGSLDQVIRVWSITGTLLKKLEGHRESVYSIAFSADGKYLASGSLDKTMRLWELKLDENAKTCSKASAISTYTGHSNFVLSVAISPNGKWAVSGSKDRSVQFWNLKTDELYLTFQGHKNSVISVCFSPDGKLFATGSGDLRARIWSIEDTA
Experiment: ITC; Fep1 (~1.4 mM) injected, 2 µl each time, into Tup11 WT or mutant (~0.2 mM); 25°C; 1×PBS pH 7.4, 150 mM NaCl; iTC200 (MicroCal); Fep1 into buffer subtracted as background; both purified

B1: C-terminal region of S. pombe Fep1 (amino acids 319–564) (domain or fragment, UniProt Q10134 319-564, looked up)
chain: AAGEPDNNGKVYYSYGPTQEQSILPLPENKHEGLPPYQNEYVPNGIRANQVVYPGQLVAVGNDSSKQLSESTTSNTDNNGVATANQSNPLGMKFHLPPILPVGESVCLPPRTSAKPRIAEGIASLLNPEEPPSNSDKQPSMSNGPKSEVSPSQSQQAPLIQSSTSPVSLQFPPEVQGSNVDKRNYALNVLSQLRSQHDLMIQELHNLNQHIQQIDEWLRSSDNENMASEHIKSSTPAVVASGALQT
notes: Fep1, GATA-factor, S. pombe, C-terminal region, amino acids 319-564
binding: binds
